Data reported in article doi:10.1101/2023.11.20.567952.

T1: His6-MBP-TEV-CTDNEP1ΔAH (human) (UniProt O95476)
T1 sequence: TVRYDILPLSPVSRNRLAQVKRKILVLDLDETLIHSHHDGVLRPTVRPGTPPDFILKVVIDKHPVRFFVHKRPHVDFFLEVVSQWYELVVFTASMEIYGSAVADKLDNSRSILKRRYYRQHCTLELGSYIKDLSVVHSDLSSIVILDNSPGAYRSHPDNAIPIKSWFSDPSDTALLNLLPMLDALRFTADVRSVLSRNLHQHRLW

T2: His6-MBP-TEV-CTDNEP1ΔAHS232D (human) (UniProt O95476)
T2 sequence: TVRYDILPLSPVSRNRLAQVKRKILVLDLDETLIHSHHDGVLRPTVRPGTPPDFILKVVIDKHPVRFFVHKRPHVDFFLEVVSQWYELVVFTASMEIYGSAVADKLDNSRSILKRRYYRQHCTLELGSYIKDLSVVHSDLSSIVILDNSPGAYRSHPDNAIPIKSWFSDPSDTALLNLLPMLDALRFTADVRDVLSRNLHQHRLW

T3: CTDNEP1ΔAH as it stands in the crystallised CTDNEP1ΔAH-linker-sNEP1R1-His6 fusion (human) (UniProt O95476)
T3 sequence: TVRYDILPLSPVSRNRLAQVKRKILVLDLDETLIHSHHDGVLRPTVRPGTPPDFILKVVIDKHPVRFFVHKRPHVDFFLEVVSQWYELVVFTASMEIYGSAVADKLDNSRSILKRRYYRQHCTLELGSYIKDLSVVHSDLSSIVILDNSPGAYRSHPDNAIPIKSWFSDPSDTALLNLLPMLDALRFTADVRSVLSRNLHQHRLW


Experiments:
[1] = target: T1, His6-MBP-TEV-CTDNEP1ΔAH (human); experiment: SEC; 12 μM His6-MBP-CTDNEP1ΔAH (or S232D) mixed with 53 μM NEP1R1, on ice 3 h, Superdex200 increase 10/300; fractions analysed by pNPP assay and SDS-PAGE; both purified
[2] = target: T2, His6-MBP-TEV-CTDNEP1ΔAHS232D (human); experiment: condition: 12 μM MBP-CTDNEP1ΔAHS232D with 53 μM NEP1R1; SEC; 12 μM His6-MBP-CTDNEP1ΔAH (or S232D) mixed with 53 μM NEP1R1, on ice 3 h, Superdex200 increase 10/300; fractions analysed by pNPP assay and SDS-PAGE; both purified
[3] = target: T3, CTDNEP1ΔAH as it stands in the crystallised CTDNEP1ΔAH-linker-sNEP1R1-His6 fusion (human); experiment: crystal structure; CTDNEP1ΔAH-sNEP1R1-His6 fusion, hanging drop, 5.5 – 6 % PEG3350, 0.2 M lithium citrate, 0.3 – 0.4 % CHAPS; apo and Mg2+-soaked crystals; both purified
[4] = target: His6-MBP-TEV-NEP1R1 (human); experiment: co-purification after co-expression (Ni-NTA, amylose, SEC); His6-MBP-NEP1R1 co-expressed with untagged CTDNEP1 forms in E. coli; membranes extracted with 1 % DDM; Ni-NTA, amylose resin, Superdex 200 in 0.02 % GDN; 4 °C; SDS-PAGE

Row | binding [4] | Molecule | further results
1 |  | NEP1R1 (purified separately) (human) | binding [1]: binds; binding [2]: no binding
2 |  | sNEP1R1 as it stands in the crystallised CTDNEP1ΔAH-linker-sNEP1R1-His6 fusion (human) (domain or fragment) | binding [3]: binds
3 | binds | CTDNEP1ΔAH (untagged) (domain or fragment, UniProt O95476 40-244) TVRYDILPLSPVSRNRLAQVKRKILVLDLDETLIHSHHDGVLRPTVRPGTPPDFILKVVIDKHPVRFFVHKRPHVDFFLEVVSQWYELVVFTASMEIYGSAVADKLDNSRSILKRRYYRQHCTLELGSYIKDLSVVHSDLSSIVILDNSPGAYRSHPDNAIPIKSWFSDPSDTALLNLLPMLDALRFTADVRSVLSRNLHQHRLW | 
4 | binds | CTDNEP1 (untagged, wild type) (enzyme, UniProt O95476 1-244) MMRTQCLLGLRTFVAFAAKLWSFFIYLLRRQIRTVIQYQTVRYDILPLSPVSRNRLAQVKRKILVLDLDETLIHSHHDGVLRPTVRPGTPPDFILKVVIDKHPVRFFVHKRPHVDFFLEVVSQWYELVVFTASMEIYGSAVADKLDNSRSILKRRYYRQHCTLELGSYIKDLSVVHSDLSSIVILDNSPGAYRSHPDNAIPIKSWFSDPSDTALLNLLPMLDALRFTADVRSVLSRNLHQHRLW | 
5 | binds | CTDNEP1 D67E (untagged) (enzyme, UniProt O95476 1-244) MMRTQCLLGLRTFVAFAAKLWSFFIYLLRRQIRTVIQYQTVRYDILPLSPVSRNRLAQVKRKILVLELDETLIHSHHDGVLRPTVRPGTPPDFILKVVIDKHPVRFFVHKRPHVDFFLEVVSQWYELVVFTASMEIYGSAVADKLDNSRSILKRRYYRQHCTLELGSYIKDLSVVHSDLSSIVILDNSPGAYRSHPDNAIPIKSWFSDPSDTALLNLLPMLDALRFTADVRSVLSRNLHQHRLW | 

Results are given in words; binding and its absence hold for the method and conditions named. For part of these data: Binding calls can cover weak binding; strength is not graded here. Tags and fused reporters may be left off the sequences shown. For part of these data: In cells and extracts the contact can be indirect.
